In PubChem BioAssay AID445 (National Center for Advancing Translational Sciences (NCATS), 2006):
This is one part of the list. Shown are side measurements of this screen, not its main read-out; they come without a call. The list favours compounds with an active or inconclusive main result. Words in brackets tell the shape of the fitted curve; partial curves, single points and poor fits give uncertain potencies.

Assay: IkB Signaling
Details: ABC-DLBCL IkBa-CBG/CBR dual luciferase ratio (green luciferase fused to IkBa over red control in OCI-Ly3 lymphoma cells), 4 h
Summary of the method: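 Curves were fitted separately to fusion (green), unfused (red) and ratio luminescence, then classed by r2, magnitude and activity. Cells: OCI-Ly3, 4 h compound plus doxycycline at 37C; 10 uM MG-132 defined full response.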

[1] = measured here: control luc red channel unless noted

For `COC(=O)c1[nH]c2ccc(C)cc2c1NC(=O)CN1CCN(Cc2ccccc2)CC1`, the AC50 [1] was 12.6 µM [falling, partial curve].
For `COc1ccc(NC(=O)Cn2cc(C(=O)c3ccc(C)c(C)c3)c(=O)c3cc(OC)ccc32)cc1`, the AC50 [1] was 39.8 µM [falling, single point].
With `Cc1ccc(-n2ncc(C(=O)N3CCN(c4ccccc4F)CC3)c2C2CCN(C(=O)OC(C)(C)C)CC2)cc1C` the AC50 [1] was 25.1 µM [falling, single point].
In the case of `CCOc1ccc(CNC(=O)c2ccc(NC(=O)N3CCCCc4ccccc43)cc2)cc1`, the AC50 [1] is reported as 10 µM [falling, partial curve].
In the case of `Cc1c(NC(=O)Cc2ccc(Cl)cc2)cccc1-c1nc2cccnc2s1`, the AC50 [1] is reported as 12.6 µM [falling, partial curve].
In the case of `CCOC(=O)c1c(C)[nH]c(C)c1S(=O)(=O)NCC(=O)Nc1cccc(Cl)c1`, the AC50 [1] is reported as 31.6 µM [falling, single point].
With `Cc1cccc(CNC(=O)Cn2nc(C)c3nn(-c4ccc(Cl)cc4)c(C)c3c2=O)c1` the AC50 [1] was 0.0398 µM [falling, full curve].
For `Cc1c(CNC2CCCCCC2)c(C(=O)O)c(C)n1Cc1cccc(Cl)c1`, the AC50 [1] was 31.6 µM [falling, partial curve].
In the case of `Cc1ccccc1Nc1c(-c2c[nH]c3ccccc23)nc2ccc(Cl)cn12`, the AC50 [1] is reported as 0.0631 µM [falling, full curve].
For `O=C(CSc1nc(Nc2ccccc2)c2ccccc2n1)c1ccc(Cl)cc1`, the AC50 [1] was 1 µM [rising, full curve].
For `Cc1ccc(Cl)c(Nc2ccccc2C(=O)O)c1Cl`, the AC50 [1] was 39.8 µM [rising, single point] [measured here: IkB-luc green channel].
For `Cc1cc(C)cc(NC(=O)NCc2c(-n3cccc3)sc3c2CCCC3)c1`, the AC50 [1] was 3.16 µM [rising, partial curve].
For `CCOC(=O)c1ccc(N2C(=O)c3n[nH]c(-c4ccco4)c3C2c2ccccc2OC)cc1` (stereo not given), the AC50 [1] was 20 µM [falling, single point].
For `COc1ccc(-c2cc(C(=O)NCc3cccnc3)no2)cc1OC`, the AC50 [1] was 3.98 µM [falling, partial curve].
In the case of `Cc1ccc(NC(=O)Cn2c(=O)n(Cc3ccccc3)c(=O)c3c(C)c(C(=O)N(C)C)sc32)c(C)c1`, the AC50 [1] is reported as 0.398 µM [rising, partial curve, poor fit].
With `CCOc1ccc2c(c1)c(=O)c(C(=O)c1ccc(CC)cc1)cn2CC(=O)Nc1ccc2c(c1)OCCO2` the AC50 [1] was 5.01 µM [falling, partial curve].
With `COc1ccc(Cl)cc1NC(=O)Cn1c(=O)n2nc(-c3ccccc3)nc2c2ccccc21` the AC50 [1] was 25.1 µM [falling, single point].
With `COc1ccc(C)c2sc(N(Cc3cccnc3)C(=O)c3cccs3)nc12` the AC50 [1] was 25.1 µM [falling, partial curve].
For `COC(=O)c1c(C)oc2ccc(N(C(=O)c3ccncc3)S(=O)(=O)c3ccc(Br)cc3)cc12`, the AC50 [1] was 25.1 µM [falling, single point].
With `O=C(Nc1cccc(F)c1)c1cnc2sc(N3CCCC3)nn2c1=O` the AC50 [1] was 0.158 µM [falling, full curve].
With `CC(C)(C)OC(=O)N1CCC(c2c(C(=O)N3CCN(c4cccc(Cl)c4)CC3)cnn2-c2cccc(Cl)c2)CC1` the AC50 [1] was 7.94 µM [rising, single point].
For `CCCCCNC(=O)c1ccc2c(=O)n(CC3CCCO3)c(=O)[nH]c2c1` (stereo not given), the AC50 [1] was 10 µM [falling, partial curve].
With `CCOC(=O)C1CCN(C(=O)Cn2nc(C)n3c(cc4c(OC)cccc43)c2=O)CC1` the AC50 [1] was 3.16 µM [rising, partial curve].
For `CCC1CN(C(=O)NCc2ccc(F)cc2)c2cc(C)ccc2O1` (stereo not given), the AC50 [1] was 15.8 µM [falling, partial curve].
With `CC(=O)COc1ccc2c3c(c(=O)oc2c1C)CCCCC3` the AC50 [1] was 0.398 µM [rising, partial curve].
In the case of `CCc1cccc2c3c([nH]c12)[C@](CC)(CC(=O)O)OCC3`, the AC50 [1] is reported as 15.8 µM [rising, partial curve] [measured here: IkB-luc green channel].
For `O=C(CSc1ccnc(=O)[nH]1)NCc1ccc(F)cc1`, the AC50 [1] was 20 µM [rising, partial curve].
In the case of `CCCCn1cc2c(c1-c1ccc(Br)cc1)c(=O)n(C)c(=O)n2C`, the AC50 [1] is reported as 20 µM [falling, partial curve].
In the case of `Cc1cccc(C(=O)NCCc2nc3ccccc3n2CCC(C)C)c1`, the AC50 [1] is reported as 15.8 µM [falling, partial curve].
For `CCc1ccc(-n2nc(C)c3c(C)cc(=O)n(CC(=O)Nc4cc(Cl)ccc4OC)c32)cc1`, the AC50 [1] was 25.1 µM [falling, partial curve].
In the case of `Cc1nc2nc(NCc3ccccc3Cl)[nH]n2c(=O)c1Cc1ccccc1`, the AC50 [1] is reported as 39.8 µM [falling, single point].
With `CCCSC1=NC2(CCN(C(=O)NC3CCCCC3)CC2)N=C1c1ccc(C)cc1` the AC50 [1] was 3.98 µM [rising, single point].
With `Cc1ccc(C)c(OCc2nc3ccccc3n2C)c1` the AC50 [1] was 2 µM [rising, partial curve].
With `Cc1ccccc1NC(=O)CSc1nc2c(oc3ccccc32)c(=O)n1Cc1ccco1` the AC50 [1] was 20 µM [rising, partial curve].
In the case of `Cc1c(C(=O)OCc2ccccc2)[nH]c2c1C(=O)CC(c1ccco1)C2` (stereo not given), the AC50 (measured here: IkB-luc green channel) is reported as 0.794 µM [rising, full curve] and the AC50 (measured here: control luc red channel) is reported as 0.251 µM [rising, full curve].
In the case of `COc1ccc(OC)c(CCNC(=O)c2ccc3c(c2)N(Cc2ccccc2)CCS3)c1`, the AC50 [1] is reported as 25.1 µM [falling, partial curve].
For `COC(=O)c1sccc1S(=O)(=O)N1CCN(c2cccc(C)c2)C(C)C1` (stereo not given), the AC50 [1] was 15.8 µM [falling, partial curve].
With `CCOC(=O)c1cccc(NC(=O)C2COc3ccc(OC)cc3C2)c1` (stereo not given) the AC50 [1] was 31.6 µM [falling, partial curve].
For `CCCCc1ccc(NC(=O)Cn2cnc3c(oc4ccccc43)c2=O)cc1`, the AC50 [1] was 0.01 µM [rising, full curve, poor fit].
